Laboratory results as given in article PMC10920805.
Results are given in words; binding and its absence hold for the method and conditions named. In cells and extracts the contact can be indirect. Some results given as binding are weak or reduced against the parent protein; the word gives no strength. For some assays here: Tags and fused reporters may be left off the sequences shown.

Experiments:
[1] = biological target: T1, RIOK3 (human (endogenous in HCT116)) (UniProt O14730); test: co-IP; HCT116 cell lysates, endogenous proteins, immunoprecipitated with anti-RIOK3 antibody; lysis buffer 0.5% NP-40, 150 mM NaCl, 50 mM Tris pH 7.5, 5 mM EDTA; antibody overnight at 4 °C, Protein A + G Agarose
T1 sequence: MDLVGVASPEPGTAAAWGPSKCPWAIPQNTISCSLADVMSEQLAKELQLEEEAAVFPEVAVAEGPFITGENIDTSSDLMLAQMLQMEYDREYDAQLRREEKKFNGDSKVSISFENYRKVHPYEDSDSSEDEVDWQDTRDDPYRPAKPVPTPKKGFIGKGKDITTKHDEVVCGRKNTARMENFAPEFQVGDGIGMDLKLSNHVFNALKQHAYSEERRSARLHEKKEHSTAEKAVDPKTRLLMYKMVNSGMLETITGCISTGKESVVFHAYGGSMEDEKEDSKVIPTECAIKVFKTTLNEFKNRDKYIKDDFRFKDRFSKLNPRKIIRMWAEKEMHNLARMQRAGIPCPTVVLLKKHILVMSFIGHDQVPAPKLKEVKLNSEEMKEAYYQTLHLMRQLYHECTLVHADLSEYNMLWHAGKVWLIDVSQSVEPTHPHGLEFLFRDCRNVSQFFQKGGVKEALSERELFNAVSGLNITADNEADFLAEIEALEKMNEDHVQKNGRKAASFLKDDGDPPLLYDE

flag-RIOK3 = biological target: T2, flag-RIOK3 (UniProt O14730); test: co-IP; lysates of HCT116 cells transfected with flag-RIOK3 (24 h), immunoprecipitated with anti-flag antibody, blotted with anti-HSP90α; lysis buffer 0.5% NP-40, 150 mM NaCl, 50 mM Tris pH 7.5, 5 mM EDTA; antibody overnight at 4 °C, Protein A + G Agarose
T2 sequence: T1 sequence

- binding [1]: binds
- binding (flag-RIOK3): binds
Substance: heat shock protein 90α (from UniProt P07900 1-732)
